Data from paper PMC12397098, “3-Monothiopomalidomide, a new immunomodulatory imide drug (IMiD), blunts inflammation and mitigates ischemic stroke in the rat” (GeroScience, 2025).
Where two headings read alike, the source gives them in different places.

What was measured:
in vitro [1] = conditions: Sprague Dawley, rat, microsomes
[2] = human, microsomes, 1 h, 1 μM
[3] = Sprague Dawley, rat, microsomes, 1 h, 1 μM
in vitro [4] = conditions: human, microsomes

In the case of CCCNCC(O)COc1ccccc1C(=O)CCc1ccccc1 (stereo not shown) [Propafenone, propafenone], the CLint scaled at 1 μM (in vitro [1]) is reported as 620 mL/min/kg, the microsomal CLint at 1 μM (in vitro [1]) is reported as 344 µL/min/mg and the “Remaining (NCF = 60 min)” value [2] is reported as 108.7%. For the same compound, the “Remaining (T = 60 min)” value [2] was 1.5%, the “Remaining (NCF = 60 min)” value [3] was 107.9% and the “Remaining (T = 60 min)” value [3] was 0.1%. The CLint scaled at 1 μM (in vitro [4]) was 118 mL/min/kg.
